From article PMC7360861 come the findings set out here.

Chains of the proteins cited; added tags and fusions are not shown. Residues count along the entry.
UniProt P02768, residues 25-609: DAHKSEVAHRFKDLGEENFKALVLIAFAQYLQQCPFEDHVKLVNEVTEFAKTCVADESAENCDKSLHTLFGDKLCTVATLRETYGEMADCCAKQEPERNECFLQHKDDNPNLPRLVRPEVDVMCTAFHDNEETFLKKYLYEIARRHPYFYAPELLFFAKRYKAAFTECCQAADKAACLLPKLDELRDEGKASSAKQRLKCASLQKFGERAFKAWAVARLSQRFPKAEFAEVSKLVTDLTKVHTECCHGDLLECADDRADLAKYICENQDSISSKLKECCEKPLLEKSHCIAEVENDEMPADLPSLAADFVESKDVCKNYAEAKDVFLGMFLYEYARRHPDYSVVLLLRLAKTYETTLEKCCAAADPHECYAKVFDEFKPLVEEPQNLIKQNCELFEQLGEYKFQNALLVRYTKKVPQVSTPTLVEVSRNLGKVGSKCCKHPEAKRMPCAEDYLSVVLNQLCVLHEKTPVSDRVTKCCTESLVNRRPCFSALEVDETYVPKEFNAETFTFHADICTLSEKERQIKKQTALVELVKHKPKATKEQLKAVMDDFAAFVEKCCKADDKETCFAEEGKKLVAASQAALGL

Results are given in words; binding and its absence hold for the method and conditions named. Binding seen in cells or lysates may run through a third protein. Some results given as binding are weak or reduced against the parent protein; the word gives no strength.

The target of assay [1] is T1, secreted protein acidic and rich in cysteine (SPARC) (human (endogenous in HS578T)) (UniProt P09486).
T1 sequence: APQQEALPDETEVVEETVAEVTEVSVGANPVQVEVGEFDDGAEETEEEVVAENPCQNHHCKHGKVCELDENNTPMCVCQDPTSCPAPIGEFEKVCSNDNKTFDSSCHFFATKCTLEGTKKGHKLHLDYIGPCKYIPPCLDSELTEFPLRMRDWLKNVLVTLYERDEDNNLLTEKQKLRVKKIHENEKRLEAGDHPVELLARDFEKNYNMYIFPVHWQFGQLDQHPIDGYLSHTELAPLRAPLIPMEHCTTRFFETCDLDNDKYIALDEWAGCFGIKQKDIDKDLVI
The assay is described as follows: co-IP; 10 and 50 ug rHSA added to 500 ug HS578T cytosolic extract; immunoprecipitated with 4 ug anti-SPARC antibody, 16 h at 4 C; protein G-agarose; washed four times with cold PBS; Western blot with anti-HSA antibody; only the binder purified.

The target of assay [2] is recombinant Human Serum Albumin (rHSA) (human) (UniProt P02768). The assay is described as follows: pull-down; rHSA covalently conjugated to MelaSil_Ag nanoparticles (100 ug) incubated in HS578T conditioned medium at 37 C under stirring for 24 h; washed three times with PBS; bound proteins eluted in Laemmli buffer, SDS-PAGE, Western blot with anti-SPARC antibody; only the target purified. (In general: In western blotting, separated proteins are transferred to a membrane and probed.)

As for “recombinant Human Serum Albumin (rHSA) (from UniProt P02768 25-609)”, the binding entry in assay [1] was “binds”.

B1: secreted protein acidic and rich in cysteine (SPARC) (protein, UniProt P09486 18-303)
chain: APQQEALPDETEVVEETVAEVTEVSVGANPVQVEVGEFDDGAEETEEEVVAENPCQNHHCKHGKVCELDENNTPMCVCQDPTSCPAPIGEFEKVCSNDNKTFDSSCHFFATKCTLEGTKKGHKLHLDYIGPCKYIPPCLDSELTEFPLRMRDWLKNVLVTLYERDEDNNLLTEKQKLRVKKIHENEKRLEAGDHPVELLARDFEKNYNMYIFPVHWQFGQLDQHPIDGYLSHTELAPLRAPLIPMEHCTTRFFETCDLDNDKYIALDEWAGCFGIKQKDIDKDLVI
On to B1, for which, in assay [2], the binding entry is “binds”.
